This is an account of results in article PMC13416154.

No constants are given. Whether binding was seen depends on the method and setting. In cells and extracts the contact can be indirect. Some binding calls cover weakened binding; strength is not graded here. Tags and fused reporters may be left off the sequences shown.

This assay addresses T1, CTCF (mouse (endogenous in testis)) (UniProt Q61164).
T1 sequence: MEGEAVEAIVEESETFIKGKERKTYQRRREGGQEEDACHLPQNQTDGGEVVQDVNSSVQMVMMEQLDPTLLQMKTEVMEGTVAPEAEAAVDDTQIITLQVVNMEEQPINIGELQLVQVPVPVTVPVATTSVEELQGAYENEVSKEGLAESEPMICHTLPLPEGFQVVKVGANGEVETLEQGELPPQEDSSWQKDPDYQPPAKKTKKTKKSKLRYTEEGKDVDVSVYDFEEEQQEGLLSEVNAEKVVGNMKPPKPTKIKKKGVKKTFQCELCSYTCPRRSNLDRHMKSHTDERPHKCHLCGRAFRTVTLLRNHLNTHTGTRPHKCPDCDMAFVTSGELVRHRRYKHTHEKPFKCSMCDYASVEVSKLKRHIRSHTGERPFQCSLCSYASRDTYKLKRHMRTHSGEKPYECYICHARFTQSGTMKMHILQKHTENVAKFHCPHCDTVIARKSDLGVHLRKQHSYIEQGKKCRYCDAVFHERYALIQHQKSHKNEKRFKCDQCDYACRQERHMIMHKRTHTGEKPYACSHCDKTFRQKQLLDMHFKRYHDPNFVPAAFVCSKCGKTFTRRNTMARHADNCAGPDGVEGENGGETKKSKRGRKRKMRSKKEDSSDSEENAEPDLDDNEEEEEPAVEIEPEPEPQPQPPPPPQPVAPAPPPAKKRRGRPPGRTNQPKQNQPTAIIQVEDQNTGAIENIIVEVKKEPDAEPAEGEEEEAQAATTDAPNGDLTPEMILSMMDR
The assay can be described thus: co-IP; CTCF immunoprecipitated from mouse testis nuclear lysates (Pierce IP buffer, 1.5 mM MgCl2, 100 U/ml Benzonase, 4 °C), wild-type or FLAG-tagged REC8 mice; immunoblot with REC8 or FLAG antibody; normal rabbit IgG as negative control. (In general: Immunoblotting shows a protein as a band on a membrane.)

B1: REC8 (protein, UniProt Q8C5S7 1-591)
chain: MFYYPNVLQRHTGCFATIWLAATRGSRLVKREYLNVNVVKTCEEILNYVLVRVQPPVAGLPRPRFSLYLSAQLQIGVIRVYFQQCQYLVEDIQHILEHLHRAQLRIRIDMEEADLPSLLLPNCLAMMETLEDAPEPFFGKMSVDPRLPSPFDIPQIRHLLEAATPEKTRKETLPEATPDPRKPDRTLATVQSPEVITLQEAEPIRMLQIEGEQDLPEISRGDLELLIAEKDDAILLEERQRGRLLRQRRASLPLDESREEPRALEGAGLVSALSPPAPAQVEGIQEALPGQVFPPEVQKMTGWEPGALLTEVTPPQELRLPAPPSTEKRLPSLQRPLPRRHRRRQLLFWDKETQISREKFEEQLQTGAHCWEYPVAQPPKRMLTSPAELFRTPTLSGWLPPELLGLWTHCAQVPQRMLRQRPQLETEETVEEERAADEEERRKTEALSEIEVLREAQEPSGPLMLSSELSLEAAEDEKSRTSLIPPEWWAWSEEGQPEPPALPMLPELPEVPMEMPPRPELSSEAVLRAVALKLQANKELDFSSLVPPLSPRKLASRVFYLLLVLSTQKILLVEQQKPYGPLLIRPGPKFP
Turning to B1, the binding result is recorded as “binds”.

B2: FLAG-tagged REC8 (protein, UniProt Q8C5S7 1-591)
chain: B1 chain
As for B2, the binding entry is “binds”.
